Earlier results, collected in patent publication US20100280059A1, “COMPOSITIONS COMPRISING AN ANTIHISTAMINE, A[…] DE[…] EXTENDED RELEASE FORMULATIONS” (Atley Pharmaceuticals, Inc., priority 2009, published 2010).
The name of at least one read-out is uncertain.

Settings: oral administration

Compound: CN(C)CCC(c1ccc(Cl)cc1)c1ccccn1 (stereo not shown) [CPM, chlorpheniramine]
- time to reach Cmax: 2 h
